Structures can show the parent of a compound that is named as a salt. This is one part of the list. Hit calls seldom repeat between salt and free forms of one compound.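 Kinases, fused to nanoluciferase, were expressed in K562 cells; luminescence was measured every 4 h from 2 to 18 h as percent of control (DMSO = 100%, positive control = 0%). A time point is decreased if signal falls significantly (2 sigma). Hits were called by the authors by a rule that is not shown; the count of time points alone does not decide it.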
How the values were obtained:
Experiment in all cases: number of time points (of 5) at which kinase-Nluc abundance scored as decreased, DMSO-normalised (count); higher = more persistent destabilization
Conditions in all cases: K562; 2-18 h
PRKCA = PRKCA (UniProt P17252)
PTK2 = PTK2 (UniProt Q05397)
PTK2B = PTK2B (UniProt Q14289)
RAF1 = RAF1 (UniProt P04049)
[1] = biological target: RAF1_S257L (clone: RAF1_mut) (UniProt P04049)
RET = RET (UniProt P07949)
[2] = biological target: RET_M918T (clone: RET_mut) (UniProt P07949)
RIOK1 = RIOK1 (UniProt Q9BRS2)
RIPK1 = RIPK1 (UniProt Q13546)
RIPK2 = RIPK2 (UniProt O43353)

Chains of the proteins cited; added tags and fusions are not shown. Lines headed by an entry give the natural chain unless they say otherwise; changes in a name come on top.
UniProt Q05397, whole entry, looked up: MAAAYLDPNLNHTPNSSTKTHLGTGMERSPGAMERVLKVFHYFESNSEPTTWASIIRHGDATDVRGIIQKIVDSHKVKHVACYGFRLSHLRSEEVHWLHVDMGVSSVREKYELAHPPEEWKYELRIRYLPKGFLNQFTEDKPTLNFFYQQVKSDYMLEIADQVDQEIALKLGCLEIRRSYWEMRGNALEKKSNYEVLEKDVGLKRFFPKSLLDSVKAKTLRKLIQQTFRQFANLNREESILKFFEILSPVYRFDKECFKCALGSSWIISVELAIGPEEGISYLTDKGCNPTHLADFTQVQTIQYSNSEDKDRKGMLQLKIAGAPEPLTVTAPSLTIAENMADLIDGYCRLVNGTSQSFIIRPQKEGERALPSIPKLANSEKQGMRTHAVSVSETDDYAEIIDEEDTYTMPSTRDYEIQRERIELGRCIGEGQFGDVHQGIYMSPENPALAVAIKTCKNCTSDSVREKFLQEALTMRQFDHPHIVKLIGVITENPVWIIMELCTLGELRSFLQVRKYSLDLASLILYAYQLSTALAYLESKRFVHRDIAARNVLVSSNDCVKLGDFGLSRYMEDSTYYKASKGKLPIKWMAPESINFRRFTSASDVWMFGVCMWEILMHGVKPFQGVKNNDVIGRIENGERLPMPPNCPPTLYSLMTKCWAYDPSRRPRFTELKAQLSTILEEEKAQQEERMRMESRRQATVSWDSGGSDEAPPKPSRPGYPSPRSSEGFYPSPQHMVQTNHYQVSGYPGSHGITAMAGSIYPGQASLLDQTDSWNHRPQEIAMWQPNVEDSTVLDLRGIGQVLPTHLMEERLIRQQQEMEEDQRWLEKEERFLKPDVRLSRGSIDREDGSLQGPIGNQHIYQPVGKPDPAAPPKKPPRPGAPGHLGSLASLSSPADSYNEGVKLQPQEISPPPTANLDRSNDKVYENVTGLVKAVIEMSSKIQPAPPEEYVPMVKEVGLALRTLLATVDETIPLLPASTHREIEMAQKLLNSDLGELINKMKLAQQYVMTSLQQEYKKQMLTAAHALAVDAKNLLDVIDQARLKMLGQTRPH
UniProt Q14289, whole entry, looked up: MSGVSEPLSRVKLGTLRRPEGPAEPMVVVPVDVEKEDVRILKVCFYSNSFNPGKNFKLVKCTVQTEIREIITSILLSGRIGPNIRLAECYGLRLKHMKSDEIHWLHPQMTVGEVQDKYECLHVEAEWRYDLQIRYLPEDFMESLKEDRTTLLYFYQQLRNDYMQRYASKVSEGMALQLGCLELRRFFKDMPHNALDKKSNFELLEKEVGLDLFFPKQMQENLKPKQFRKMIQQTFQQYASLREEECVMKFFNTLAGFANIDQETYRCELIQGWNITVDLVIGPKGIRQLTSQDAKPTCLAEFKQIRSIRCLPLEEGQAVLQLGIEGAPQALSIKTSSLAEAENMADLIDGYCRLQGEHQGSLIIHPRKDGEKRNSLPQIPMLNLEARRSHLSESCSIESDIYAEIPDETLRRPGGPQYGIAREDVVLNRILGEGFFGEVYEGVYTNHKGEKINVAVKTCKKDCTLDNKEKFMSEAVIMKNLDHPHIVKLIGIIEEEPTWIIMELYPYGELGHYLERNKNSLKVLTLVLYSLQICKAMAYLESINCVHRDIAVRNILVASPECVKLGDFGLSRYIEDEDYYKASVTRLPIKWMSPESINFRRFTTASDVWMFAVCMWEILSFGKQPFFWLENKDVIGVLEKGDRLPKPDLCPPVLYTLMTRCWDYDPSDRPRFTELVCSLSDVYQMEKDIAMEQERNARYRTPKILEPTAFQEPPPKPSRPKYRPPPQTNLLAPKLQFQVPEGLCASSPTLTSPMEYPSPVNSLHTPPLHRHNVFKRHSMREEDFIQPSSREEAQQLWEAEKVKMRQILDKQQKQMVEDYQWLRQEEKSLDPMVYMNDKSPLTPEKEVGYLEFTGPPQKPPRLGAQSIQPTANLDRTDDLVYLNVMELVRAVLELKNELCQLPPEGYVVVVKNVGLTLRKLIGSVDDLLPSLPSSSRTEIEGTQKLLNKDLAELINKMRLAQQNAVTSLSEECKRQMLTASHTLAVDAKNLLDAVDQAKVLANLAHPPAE
UniProt P07949, whole entry, looked up: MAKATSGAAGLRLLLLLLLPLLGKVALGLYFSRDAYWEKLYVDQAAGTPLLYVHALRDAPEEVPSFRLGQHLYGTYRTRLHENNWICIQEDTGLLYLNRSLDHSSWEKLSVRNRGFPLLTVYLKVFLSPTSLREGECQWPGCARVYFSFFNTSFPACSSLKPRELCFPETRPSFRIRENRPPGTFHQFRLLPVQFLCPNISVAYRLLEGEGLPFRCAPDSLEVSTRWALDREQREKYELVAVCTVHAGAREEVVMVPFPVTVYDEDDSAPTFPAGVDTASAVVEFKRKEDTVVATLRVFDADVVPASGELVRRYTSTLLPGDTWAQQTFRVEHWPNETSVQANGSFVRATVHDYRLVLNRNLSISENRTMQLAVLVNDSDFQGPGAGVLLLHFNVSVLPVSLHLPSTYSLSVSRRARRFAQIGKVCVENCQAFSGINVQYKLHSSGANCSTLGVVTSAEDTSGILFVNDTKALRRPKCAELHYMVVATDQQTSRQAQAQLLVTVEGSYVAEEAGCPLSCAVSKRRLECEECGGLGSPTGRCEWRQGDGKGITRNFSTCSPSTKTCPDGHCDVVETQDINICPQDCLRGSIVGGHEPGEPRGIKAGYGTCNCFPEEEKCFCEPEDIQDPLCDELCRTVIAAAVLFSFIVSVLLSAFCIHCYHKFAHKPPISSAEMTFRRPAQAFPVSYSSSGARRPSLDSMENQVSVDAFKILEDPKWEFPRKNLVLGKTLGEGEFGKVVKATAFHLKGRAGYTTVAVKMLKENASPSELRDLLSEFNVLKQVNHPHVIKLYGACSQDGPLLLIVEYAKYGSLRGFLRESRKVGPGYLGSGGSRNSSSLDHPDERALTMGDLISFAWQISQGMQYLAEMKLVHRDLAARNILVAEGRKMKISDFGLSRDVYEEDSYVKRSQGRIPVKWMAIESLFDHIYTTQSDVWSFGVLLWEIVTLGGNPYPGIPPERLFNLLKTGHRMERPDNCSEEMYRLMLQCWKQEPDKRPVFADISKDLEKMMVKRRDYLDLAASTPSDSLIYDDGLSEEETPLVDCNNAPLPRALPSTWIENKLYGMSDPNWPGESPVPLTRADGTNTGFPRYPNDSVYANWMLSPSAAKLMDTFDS
UniProt P07949, whole entry M918T, looked up: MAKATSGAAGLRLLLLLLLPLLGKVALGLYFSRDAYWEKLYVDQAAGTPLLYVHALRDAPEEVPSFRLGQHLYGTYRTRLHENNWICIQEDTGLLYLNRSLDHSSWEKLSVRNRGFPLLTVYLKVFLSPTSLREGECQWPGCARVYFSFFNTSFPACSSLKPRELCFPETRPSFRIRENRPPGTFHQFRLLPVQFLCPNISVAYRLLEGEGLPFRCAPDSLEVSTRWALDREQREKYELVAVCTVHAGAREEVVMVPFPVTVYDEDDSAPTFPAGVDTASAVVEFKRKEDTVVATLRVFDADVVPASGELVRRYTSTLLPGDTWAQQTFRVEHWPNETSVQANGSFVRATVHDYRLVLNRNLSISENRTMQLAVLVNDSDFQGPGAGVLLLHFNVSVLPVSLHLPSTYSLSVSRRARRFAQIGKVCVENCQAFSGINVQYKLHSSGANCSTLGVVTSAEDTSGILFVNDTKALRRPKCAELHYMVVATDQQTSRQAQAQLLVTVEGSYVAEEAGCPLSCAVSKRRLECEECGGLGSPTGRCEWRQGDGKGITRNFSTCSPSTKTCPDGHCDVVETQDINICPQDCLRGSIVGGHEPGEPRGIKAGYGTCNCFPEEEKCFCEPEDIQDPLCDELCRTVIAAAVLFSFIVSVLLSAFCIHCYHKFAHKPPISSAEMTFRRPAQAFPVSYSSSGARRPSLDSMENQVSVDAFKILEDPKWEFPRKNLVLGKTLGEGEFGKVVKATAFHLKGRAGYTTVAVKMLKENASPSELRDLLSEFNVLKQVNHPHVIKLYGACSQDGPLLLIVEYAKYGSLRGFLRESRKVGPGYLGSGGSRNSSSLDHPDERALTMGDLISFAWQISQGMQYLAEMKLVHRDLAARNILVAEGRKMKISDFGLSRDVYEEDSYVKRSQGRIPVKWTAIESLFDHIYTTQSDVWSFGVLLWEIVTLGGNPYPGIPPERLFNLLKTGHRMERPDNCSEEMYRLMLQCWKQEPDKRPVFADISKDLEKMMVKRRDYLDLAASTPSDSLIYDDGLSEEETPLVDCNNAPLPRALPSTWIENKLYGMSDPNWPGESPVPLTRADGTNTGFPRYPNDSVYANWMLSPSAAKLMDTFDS
UniProt Q9BRS2: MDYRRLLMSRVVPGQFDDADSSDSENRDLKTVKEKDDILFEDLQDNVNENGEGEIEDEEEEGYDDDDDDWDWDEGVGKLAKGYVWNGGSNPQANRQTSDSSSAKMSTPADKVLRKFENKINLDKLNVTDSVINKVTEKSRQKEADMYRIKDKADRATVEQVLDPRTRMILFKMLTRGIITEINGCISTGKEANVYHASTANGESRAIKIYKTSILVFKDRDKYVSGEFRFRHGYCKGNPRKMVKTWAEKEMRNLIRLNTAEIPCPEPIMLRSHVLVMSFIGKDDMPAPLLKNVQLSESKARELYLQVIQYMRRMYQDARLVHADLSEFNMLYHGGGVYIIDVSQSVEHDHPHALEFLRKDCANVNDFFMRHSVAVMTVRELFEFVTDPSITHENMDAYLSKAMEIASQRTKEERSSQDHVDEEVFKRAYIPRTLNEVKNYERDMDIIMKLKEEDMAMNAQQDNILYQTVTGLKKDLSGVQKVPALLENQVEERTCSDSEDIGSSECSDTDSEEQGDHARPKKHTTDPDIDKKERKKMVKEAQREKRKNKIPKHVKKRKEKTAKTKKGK
UniProt Q13546: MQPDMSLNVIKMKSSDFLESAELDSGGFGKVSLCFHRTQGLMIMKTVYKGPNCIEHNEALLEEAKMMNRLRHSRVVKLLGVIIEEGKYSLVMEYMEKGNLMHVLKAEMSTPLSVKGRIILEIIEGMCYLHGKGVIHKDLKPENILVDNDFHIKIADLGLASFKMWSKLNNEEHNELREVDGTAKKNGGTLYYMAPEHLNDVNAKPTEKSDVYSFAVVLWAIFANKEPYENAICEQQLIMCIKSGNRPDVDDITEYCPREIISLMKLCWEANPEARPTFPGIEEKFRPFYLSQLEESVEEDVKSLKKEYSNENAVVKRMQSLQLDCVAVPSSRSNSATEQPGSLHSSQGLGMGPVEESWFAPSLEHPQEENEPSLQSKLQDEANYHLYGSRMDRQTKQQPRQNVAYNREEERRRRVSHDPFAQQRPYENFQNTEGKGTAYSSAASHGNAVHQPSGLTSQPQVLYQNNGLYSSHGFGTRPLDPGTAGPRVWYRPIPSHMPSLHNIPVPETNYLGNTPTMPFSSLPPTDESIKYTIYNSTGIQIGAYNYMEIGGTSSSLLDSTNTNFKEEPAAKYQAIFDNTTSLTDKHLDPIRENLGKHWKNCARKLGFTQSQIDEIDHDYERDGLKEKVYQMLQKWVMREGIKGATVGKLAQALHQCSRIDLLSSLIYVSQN

SMILES	number of time points (PRKCA)	number of time points (PTK2)	number of time points (PTK2B)	number of time points (RAF1)	number of time points [1]	number of time points (RET)	number of time points [2]	number of time points (RIOK1)	number of time points (RIPK1)	number of time points (RIPK2)
CCOc1c([C@H](C)n2nc(C)c3c(N)ncnc32)cc(Cl)c(F)c1[C@@H]1CNC(=O)C1 [Parsaclisib (hydrochloride)] (10 µM)	0	0	0	0	0	0	0	0	0	0
O=C1NCCCc2c1oc1ccc(O)cc21 (10 µM)	0	0	0	0	0	0	0	0	0	0
O=C(O)CCc1ccc(NCc2cccc(Oc3ccccc3)c2)cc1 (10 µM)	0	0	0	0	0	0	0	0	0	0
COc1ccc2c(c1OC)OC1c3ccc(O)cc3OCC21 (stereo not given) [Methylnissolin] (10 µM)	0	0	0	0	0	0	0	2	0	0
Nc1cc(C(F)F)c(-c2nc(N3C4CCC3COC4)nc(N3C4CCC3COC4)n2)cn1 (2.5 µM)	0	3	0	0	0	0	0	0	0	0
C=C(F)C(=O)N1CCN(c2nc(OC[C@@H]3CCCN3C)nc3c2CCN(c2cccc4cccc(Cl)c24)C3)C[C@@H]1CC#N (2.5 µM)	0	0	0	0	0	0	0	0	0	0
O=c1cc(-c2ccc(O)c(O)c2O)oc2ccccc12 (10 µM)	0	0	0	0	0	0	0	0	0	0
O=C(Nc1cccc(-c2nncn2C2CC2)c1)c1cc(-n2cnc(C3CC3)c2)ccn1 (10 µM)	0	0	0	0	0	0	0	0	0	0
CC[C@@H]1C(=O)N(C)c2cnc(Nc3ccc(C(=O)N[C@H]4CC[C@H](N5CCN(CC6CC6)CC5)CC4)cc3OC)nc2N1C(C)C [Volasertib] (2.5 µM)	0	0	0	0	0	0	0	0	0	0
Cc1ccc(-c2nn(C(C)(C)CNC(=O)c3ccncc3)c3ncnc(N)c23)cc1 (2.5 µM)	0	0	0	0	0	0	0	0	0	0
COc1ccc(CN2C3CC2CN(c2ccc(-c4cc(OCC(C)(C)O)cn5ncc(C#N)c45)cn2)C3)cn1 [Selpercatinib] (10 µM)	0	0	0	0	0	0	0	0	0	0
CN(C)Cc1cccc(N=C(c2ccccc2)c2c(O)[nH]c3cc(C(=O)N(C)C)ccc23)c1 (10 µM)	0	0	0	0	0	0	0	0	0	0
CN(C)C(=O)c1ccc(S(=O)(=O)c2ccc(NC(=O)[C@@](C)(O)C(F)(F)F)c(Cl)c2)cc1 (10 µM)	0	1	0	0	2	0	0	0	0	0
CC(C)c1ccc(CC(=O)N2CCN(c3ccc(C#N)nn3)CC2)cc1 (10 µM)	0	0	0	0	0	0	0	0	0	0
CCCCCCCC/C=C\CCCCCCCC(=O)NCC(=O)O [N-Oleoyl glycine] (10 µM)	0	0	0	0	0	0	0	0	0	0
Cc1cc2ncc(-c3ccccc3)nc2cc1C (10 µM)	0	0	0	0	0	0	0	0	0	0
CCOc1ccccc1C=C1C(=O)Nc2ccccc21 (10 µM)	0	0	0	0	0	0	0	0	0	0
O=c1nc(N2CCOCC2)oc2c(-c3cccc4c3sc3ccccc34)cccc12 (10 µM)	0	0	0	0	0	0	0	0	0	0
C[C@@H]1COCCN1c1cc(=O)n2c(n1)N(Cc1cncc(Cl)c1)[C@H](C(F)(F)F)CC2 (10 µM)	0	1	0	0	0	0	0	0	2	0
O=S(=O)(c1cccc2cnccc12)N1CCNCC1 (10 µM)	0	0	0	0	0	0	0	0	0	0
O=C(Nc1ccc(Cl)cc1)C1CCCN(C(=O)c2cccc(-c3ccco3)c2)C1 (stereo not given) (2.5 µM)	0	0	0	0	0	0	0	0	0	0
CCC(C)(C)C(=O)N(O)Cc1ccccc1 (10 µM)	0	0	0	0	0	0	0	0	0	0
CC(=O)NCCc1c[nH]c2ccc(O)cc12 [N-Acetyl-5-hydroxytryptamine] (10 µM)	0	0	0	0	0	0	0	0	0	0
O=C(Nc1ccc(Cl)c(Cl)c1)Nc1ccc2nnsc2c1 (10 µM)	0	0	0	0	0	0	0	0	0	0

SMILES	number of time points (PRKCA)	number of time points (PTK2)	number of time points (PTK2B)	number of time points (RAF1)	number of time points [1]	number of time points (RET)	number of time points [2]	number of time points (RIOK1)	number of time points (RIPK1)	number of time points (RIPK2)
CN1CCN(CCCNc2ncc(Cl)c(-c3cc4c(C(=O)NC5CC5)cccc4s3)n2)CC1 (10 µM)	0	0	0	0	0	0	0	0	0	0
CNC(=O)c1cc(Oc2ccc3nc(N[C@@H]4CCCC[C@H]4O)sc3c2)ccn1 (10 µM)	0	0	0	0	0	0	0	0	0	0
CCc1c(C)sc(NC(=S)NC(=O)c2ccc(Cl)cc2)c1C(N)=O (10 µM)	0	0	0	0	0	0	0	0	0	0
C[C@@H]1COCCN1c1cc(C2([S@](C)(=N)=O)CC2)nc(-c2cc[nH]c3nccc2-3)n1 [Ceralasertib] (2.5 µM)	0	0	0	0	0	0	0	0	0	0
CSc1ccc(CN2CCCC(Nc3ccc4[nH]ncc4c3)C2)cc1 (stereo not given) [Rho-Kinase-IN-1] (10 µM)	0	0	0	0	0	0	0	0	0	0
CN1CC[C@H](c2c(O)cc(O)c3c(=O)cc(-c4ccc(C(F)(F)F)cc4Cl)oc23)[C@H]1CO [(2S,3R)-Voruciclib (hydrochloride)] (2.5 µM)	0	0	0	0	2	0	0	0	0	0
NCCCCCCNS(=O)(=O)c1cccc2c(Cl)cccc12 [W-7 (hydrochloride)] (10 µM)	0	0	0	0	0	0	0	0	0	0
O=C(O)c1ccc(-c2c[nH]c3ncc(-c4ccccc4)cc23)cc1C1CCCC1 (2.5 µM)	1	0	0	1	0	0	0	0	0	0
O=C(O)c1ccc(N2N=C(Cc3ccccc3)C(=Cc3ccc(-c4ccccc4F)o3)C2=O)cc1 (10 µM)	0	0	0	0	0	0	0	0	0	0
CC(C)n1cnc2c(Nc3cccc(Cl)c3)nc(NCCO)nc21 (10 µM)	0	0	0	0	0	0	0	0	0	0
CCN1C(=O)CNc2ncc(-c3ccc(-c4nc[nH]n4)nc3C)nc21 [CC-115 (hydrochloride)] (2.5 µM)	0	3	1	2	4	2	4	2	3	3
COC1(C(=O)N[C@@H](C)c2ccc(-n3cc(F)cn3)nc2)CCC(c2nc(C)cc(Nc3cc(C)[nH]n3)n2)CC1 (stereo partly drawn) [trans-Pralsetinib] (2.5 µM)	0	0	0	0	0	0	0	0	0	0
C=CC(=O)N1CCC[C@@H](n2nc(C(=O)Nc3ccc(CC(=O)N(C)C)c(C)c3C)c3c(N)ncnc32)C1 (10 µM)	0	0	0	0	0	0	0	0	0	0
COC(=O)[C@@]1(C)CC[C@]2(C(=O)O)CC[C@]3(C)C(=CC[C@@H]4[C@@]5(C)C[C@H](O)[C@H](O[C@@H]6OC[C@@H](O[C@@H]7O[C@H](CO)[C@@H](O)[C@H](O)[C@H]7O)[C@H](O)[C@H]6O)[C@@](C)(CO)[C@@H]5CC[C@]43C)[C@@H]2C1 [Esculentoside A] (10 µM)	0	0	0	0	0	0	0	0	0	0
CCc1ccc(C(=O)COc2ccc(CC3SC(=O)NC3=O)cc2)nc1 (stereo not given) (10 µM)	0	0	0	0	0	0	0	0	0	0
CN(C)Cc1cccc(N=C(c2ccccc2)c2c(O)[nH]c3cc(C(N)=O)ccc23)c1 (10 µM)	0	0	0	0	0	0	0	0	0	0
CCN(C)C(=O)c1ccc2c(C(=Nc3ccc(CN4CCCCC4)cc3)c3ccccc3)c(O)[nH]c2c1 (2.5 µM)	0	0	0	0	0	0	0	0	0	0
C=CC(=O)Nc1cccc(Oc2nc(Nc3ccc(N4CCN(C)CC4)cc3)nc3ccoc23)c1 [Poseltinib] (10 µM)	0	0	0	0	0	0	0	0	0	0
Nc1cc(C(F)(F)F)c(-c2nc(N3CCOCC3)nc(N3CCOCC3)n2)cn1 [Bimiralisib] (10 µM)	0	2	0	3	2	1	4	0	2	1
c1cc(-c2cnn3cc(-c4ccc(N5CCNCC5)cc4)cnc23)c2cccnc2c1 (2.5 µM)	0	2	0	0	0	0	0	0	0	2
COc1ccc(CNc2nc(N(CCO)CCO)nc3c2ncn3C(C)C)cc1 (2.5 µM)	0	0	0	0	0	0	0	0	0	0
CC[C@H](Nc1ncnc2[nH]cnc12)c1oc2ccccc2c(=O)c1-c1cccc(F)c1 [Tenalisib] (10 µM)	0	0	0	0	0	0	0	0	0	0
CC(C)c1cnn2c(NCc3ccccc3-n3cccn3)nc(OC3CCCNC3)nc12 (stereo not given) (2.5 µM)	0	2	0	0	1	0	0	0	4	0
COc1ccccc1/C=C1\C(=O)Nc2ccccc21 (10 µM)	0	0	0	0	0	0	0	0	0	0

A different layout for three compounds above:

| SMILES | number of time points (PRKCA) | number of time points (PTK2) | number of time points (PTK2B) | number of time points (RAF1) | number of time points [1] | number of time points (RET) | number of time points [2] | number of time points (RIOK1) | number of time points (RIPK1) | number of time points (RIPK2) |
| --- | --- | --- | --- | --- | --- | --- | --- | --- | --- | --- |
| CCc1c(C)sc(NC(=S)NC(=O)c2ccc(Cl)cc2)c1C(N)=O (10 µM) | 0 | 0 | 0 | 0 | 0 | 0 | 0 | 0 | 0 | 0 |
| C[C@@H]1COCCN1c1cc(C2([S@](C)(=N)=O)CC2)nc(-c2cc[nH]c3nccc2-3)n1 [Ceralasertib] (2.5 µM) | 0 | 0 | 0 | 0 | 0 | 0 | 0 | 0 | 0 | 0 |
| CSc1ccc(CN2CCCC(Nc3ccc4[nH]ncc4c3)C2)cc1 (stereo not given) [Rho-Kinase-IN-1] (10 µM) | 0 | 0 | 0 | 0 | 0 | 0 | 0 | 0 | 0 | 0 |
